The assay addresses FLAG-mGluR1 (metabotropic glutamate receptor 1) (UniProt P23385). Kind of assay: co-IP; anti-FLAG antibody on protein A/G beads, lysate of primary neurons transfected with FLAG-mGluR1 (72 h); TAP lysis buffer (20 mM Tris pH 8.0, 150 mM NaCl, 0.5% NP-40, 1 mM MgCl2, 1 mM Na3VO4); cells untreated or treated with 100 uM R,S-DHPG for 5 min; blots for FLAG and PICK1.

Chains of the proteins cited; added tags and fusions are not shown. Residues count along the entry.
UniProt P23385, residues 19-1199: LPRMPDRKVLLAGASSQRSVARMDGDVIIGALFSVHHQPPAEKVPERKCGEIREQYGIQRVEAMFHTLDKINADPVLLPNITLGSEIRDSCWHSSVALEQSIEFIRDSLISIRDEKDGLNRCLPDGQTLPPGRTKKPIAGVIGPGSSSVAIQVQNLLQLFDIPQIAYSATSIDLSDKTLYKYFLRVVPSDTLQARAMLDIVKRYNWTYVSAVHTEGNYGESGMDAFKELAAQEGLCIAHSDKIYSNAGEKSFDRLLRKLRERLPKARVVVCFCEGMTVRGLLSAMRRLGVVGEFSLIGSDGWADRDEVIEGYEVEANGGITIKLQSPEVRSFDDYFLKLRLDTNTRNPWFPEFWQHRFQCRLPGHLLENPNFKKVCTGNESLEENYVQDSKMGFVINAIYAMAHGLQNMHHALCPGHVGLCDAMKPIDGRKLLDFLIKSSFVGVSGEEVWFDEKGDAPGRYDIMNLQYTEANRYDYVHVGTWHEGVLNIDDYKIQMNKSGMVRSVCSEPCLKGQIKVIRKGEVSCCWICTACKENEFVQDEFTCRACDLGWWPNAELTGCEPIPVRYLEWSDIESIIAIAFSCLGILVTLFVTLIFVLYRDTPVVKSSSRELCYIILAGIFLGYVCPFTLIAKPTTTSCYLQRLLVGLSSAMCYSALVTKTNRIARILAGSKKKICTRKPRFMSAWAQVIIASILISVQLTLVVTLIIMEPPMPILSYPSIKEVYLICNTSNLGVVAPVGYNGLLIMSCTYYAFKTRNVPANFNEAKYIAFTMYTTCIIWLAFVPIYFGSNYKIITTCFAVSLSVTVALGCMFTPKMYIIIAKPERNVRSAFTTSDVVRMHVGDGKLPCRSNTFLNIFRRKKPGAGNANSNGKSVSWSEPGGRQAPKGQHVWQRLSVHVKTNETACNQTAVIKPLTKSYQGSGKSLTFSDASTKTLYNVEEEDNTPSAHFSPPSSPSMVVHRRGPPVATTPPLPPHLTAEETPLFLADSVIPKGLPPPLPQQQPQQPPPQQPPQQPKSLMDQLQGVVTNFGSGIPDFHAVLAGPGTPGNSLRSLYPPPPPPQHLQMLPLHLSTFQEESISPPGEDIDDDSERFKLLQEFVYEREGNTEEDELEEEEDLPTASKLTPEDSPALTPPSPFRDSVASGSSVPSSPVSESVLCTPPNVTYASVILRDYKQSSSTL
UniProt Q62083: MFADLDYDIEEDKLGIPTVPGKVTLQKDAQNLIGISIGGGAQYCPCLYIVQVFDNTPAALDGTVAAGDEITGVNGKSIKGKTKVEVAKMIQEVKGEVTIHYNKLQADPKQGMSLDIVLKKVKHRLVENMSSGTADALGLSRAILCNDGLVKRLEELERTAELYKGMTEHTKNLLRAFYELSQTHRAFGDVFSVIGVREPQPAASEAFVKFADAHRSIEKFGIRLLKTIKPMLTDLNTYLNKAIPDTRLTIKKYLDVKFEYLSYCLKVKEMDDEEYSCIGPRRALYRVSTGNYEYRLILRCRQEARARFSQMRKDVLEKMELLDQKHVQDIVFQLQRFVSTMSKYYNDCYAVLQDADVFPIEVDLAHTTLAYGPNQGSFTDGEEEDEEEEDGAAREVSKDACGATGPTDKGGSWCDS

Results are given in words; binding and its absence hold for the method and conditions named. In cells and extracts the contact can be indirect. Some entries that bind do so weakly or less than the wild type.

On to “Protein interacting with C kinase 1 (PICK1) (from UniProt Q62083 1-416)”, for which the binding entry is “binds”.

Source of the values: article PMC10276164.
